Laboratory results reported in patent US5112519A, “Process for production of biodegradable surfactants and compositions thereof” (Mobil Oil Corporation, priority 1989, dated 1992).

What was measured:
[1] = Soil redeposition index, unbuilt household liquid laundry detergent, carbon black/oil; details: 100° F.
[2] = Soil redeposition index, phosphorous built industrial liquid laundry detergent, carbon black/oil; details: 130° F.
[3] = Soil redeposition index, phosphorous built industrial liquid laundry detergent, sebum/dust; details: 130° F.
[4] = test system: inoculum from Mobil Technical Center and Paulsboro refinery waste treatment plants; assay: Microbiological conversion of tridecanols to carbon dioxide

| Molecule | Soil Redeposition Index ([1]; Cotton) | Soil Redeposition Index ([1]; Polyester) | Soil Redeposition Index ([1]; Polyester/Cotton) | Soil Redeposition Index ([2]; Cotton) | Soil Redeposition Index ([2]; Polyester) | Soil Redeposition Index ([2]; Polyester/Cotton) | Soil Redeposition Index ([3]; Cotton) | Soil Redeposition Index ([3]; Polyester) | Soil Redeposition Index ([3]; Polyester/Cotton) | cumulative % biodegraded to carbon dioxide ([4]; 2 days incubated) | cumulative % biodegraded to carbon dioxide ([4]; 7 days incubated) | cumulative % biodegraded to carbon dioxide ([4]; 14 days incubated) | cumulative % biodegraded to carbon dioxide ([4]; 21 days incubated) | cumulative % biodegraded to carbon dioxide ([4]; 28 days incubated) | cumulative % biodegraded to carbon dioxide ([4]; 28 days incubated, listed as Napththalene) |
| --- | --- | --- | --- | --- | --- | --- | --- | --- | --- | --- | --- | --- | --- | --- | --- |
| dodecylbenzenesulfonic acid sodium salt [Vista LABS] | 99 | 99 | 99 | 97 | 96 | 99 | 98 | 96 | 98 | – | – | – | – | – | – |
| c1ccc2ccccc2c1 [NAPHTHALENE] | – | – | – | – | – | – | – | – | – | 16.8% | 46.5% | 58.0% | 61.9% | 64.7% | 65% |
